According to patent US7601801B2, “HLA-A24 binding cancer antigen peptide derived from livin” (Dainippon Sumitomo Pharma Co., Ltd., priority 2003, dated 2009):
Entries after “also recorded” stand apart in the source; their conditions may differ. Part of at least one peptide drawing is inferred or uncertain, most often the ends. No end group written: not given here.

Amino acid sequences for entries named in this document (tags omitted).
UniProt P01901, whole entry, looked up, stated change not applied: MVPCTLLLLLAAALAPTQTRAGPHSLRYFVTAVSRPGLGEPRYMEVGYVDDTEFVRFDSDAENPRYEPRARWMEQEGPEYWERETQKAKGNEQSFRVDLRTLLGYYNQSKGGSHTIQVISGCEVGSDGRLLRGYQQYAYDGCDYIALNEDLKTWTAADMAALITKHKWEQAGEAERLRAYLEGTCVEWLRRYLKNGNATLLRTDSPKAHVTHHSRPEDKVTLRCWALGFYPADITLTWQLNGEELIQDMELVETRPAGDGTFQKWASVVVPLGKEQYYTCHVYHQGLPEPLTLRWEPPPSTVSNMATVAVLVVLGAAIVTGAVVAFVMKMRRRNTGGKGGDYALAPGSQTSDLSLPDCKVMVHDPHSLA

Experiments:
[1] = tested on: LNY-1A24 cells (livin-positive, HLA-A*2402-positive); assay: CTL induction from PBMCs of HLA-A24-positive lung cancer patients, 51Cr release assay; type: cell-based, human; conditions: summary statement
Procedure: After obtaining informed-consent, peripheral blood was collected from an HLA-A24-positive patient having lung cancer, and mononuclear cells were separated by density gradient centrifugation method and cultured in AIM-V culture solution (Invitrogen). After 24-hour-cultivation, nonadherent cells were recovered and cultured in AIM-V containing 100 U/mL IL-2. For the preparation of antigen-presenting cells, adherent cells were cultured in AIM-V culture solution containing 1000 U/mL IL-4 and 1000 U/mL GM-CSF for 5 days, and, after addition of 10 μM peptide 7, cultured for another 1 day. To the culture were then added 10 ng/mL TNF and 1000 U/mL IFN-α, and the mixture was cultured. CD8-positive T cells were separated from the nonadherent cells by means of anti-CD8 antibody-bound magnetic beads, and cultured together with antigen-presenting cells pulsed with a peptide as described above.
The remaining nonadhesive cells after separating CD8-positive T cells were cultured in AIM-V medium containing 1 μg/mL PHA and 100 U/mL IL-2 for 3 days, then in a medium lacking PHA for 4 days, and stocked as antigen presenting cells for the second and third peptide-stimulation. […] After one week from the third stimulation, cytotoxic activity of T cells was measured by ^51Cr release assay. […] After culturing for 4 hours, the cytotoxic activity was measured.

HLA-A*2402 = molecular target: T1, HLA-A*2402 (UniProt P01901+P04439, D101N/D140Y/E190D/F33S/G103R/G107R/I119L/I121M/L105A/N151K/N90K/Q86E/Q94H/R106L/R138H/R89G/T104I/V100E/W191G/Y123F); assay: Binding affinity of peptides to HLA-A*2402 on RMA-S-A*2402 cells (flow cytometry, mean fluorescence intensity); design: species or system human
T1 construct: expressed in transfected cells; host or cells: RMA-S-A*2402 cells (mouse lymphoma cell line RMA-S)
Procedure: RMA-S-A*2402 cells were washed with a PBS solution, suspended in a culture solution OPTI-MEM (Invitrogen) containing 3 μL/mL human β2-microglobulin and […] of each peptide, and incubated at 26° C. for 3 hours, and at 37° C. for 3 hours. The cells were washed with a PBS solution and treated with anti-HLA-A24 antibody at 4° C. for 30 minutes. Furthermore, the cells were washed with a PBS solution, and treated with PE-labeled anti-mouse IgG antibody at 4° C. for 30 minutes. The cells were washed, and suspended in a 1 ml PBS solution containing 1% formalin for fixation. The cells were measured by a device for flow cytometry (FACScan, BD Bioscience), and the binding affinity of a peptide was obtained from the mean fluorescence intensity.

**Q.** For “KWFPSCQFLL [peptide 7, Lys Trp Phe Pro Ser Cys Gln Phe Leu Leu]”, which “CTL-inducing activity compared to a positive control” value [1] is on record?
**A.** Its value is “better CTL-inducing activity”.

**Q.** And the “binding affinity to HLA-A*2402 (mean fluorescence intensity)” value (HLA-A*2402; 100 μL/mL of each peptide, 26° C. 3 hours and 37° C. 3 hours, anti-HLA-A24 antibody, FIG. 1)?
**A.** The value was “bind to HLA-A*2402 favorably; also recorded: potent binding affinity”.

**Q.** What about the “binding affinity to HLA-A*2402 compared to the positive control (EBV)” value (HLA-A*2402; FIG. 1) of the same sequence?
**A.** Its value is “higher binding affinity than the positive control (EBV)”.

**Q.** What about the “binding affinity to HLA-A*2402 compared to the positive control (EBV)” value (HLA-A*2402; FIG. 1, listed as SEQ ID NO: 8) of the same sequence?
**A.** The value was “particularly higher HLA-A24-antigen-binding activity; also recorded: particularly higher HLA-A24 antigen-binding activity”.
